Assay results: US20050118601A1, “Enhancer sequence of the 5-aminolevulinic acid synthase gene” (priority 2002, published 2005)
Results are given in words; binding and its absence hold for the method and conditions named. Some binding calls cover weakened binding; strength is not graded here.

Legend:
[1] = biological target: T1, human 9-cis retinoic acid receptor RXRα (human, UniProt P19793 1-462); assay: electrophoretic mobility shift, hA240 probe; no complex with single receptors (FIG. 19B)
T1 construct: also called human RXRα
T1 sequence (looked up): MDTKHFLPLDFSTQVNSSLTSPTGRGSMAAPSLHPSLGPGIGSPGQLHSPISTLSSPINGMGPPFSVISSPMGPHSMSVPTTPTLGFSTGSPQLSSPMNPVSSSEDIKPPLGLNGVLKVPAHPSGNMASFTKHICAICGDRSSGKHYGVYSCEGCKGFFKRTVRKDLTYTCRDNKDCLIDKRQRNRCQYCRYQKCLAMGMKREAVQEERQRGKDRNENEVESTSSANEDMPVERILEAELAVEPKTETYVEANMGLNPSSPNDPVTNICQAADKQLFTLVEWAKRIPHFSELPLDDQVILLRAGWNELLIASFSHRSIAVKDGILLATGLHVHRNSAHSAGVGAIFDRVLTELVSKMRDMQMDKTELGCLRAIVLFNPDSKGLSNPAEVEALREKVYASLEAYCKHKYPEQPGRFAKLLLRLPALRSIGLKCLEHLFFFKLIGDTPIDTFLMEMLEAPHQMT
Description: FIG. 19 depicts the results of an electrophoretic mobility shift assay, assaying the ability of human PXR and human CAR to bind to the hA174 and hA240 elements. Binding of these nuclear receptors happens in a heterodimeric state with the human 9-cis retinoic acid receptor RXRα. From expression plasmids encoding human RXRα, […] or CAR, receptor protein was made in vitro using the TNT reticulocyte lysate coupled transcription/translation system (Promega Corp.).
FIG. 19B: Instead of the hA174 fragment, wild-type or DR4-mutant hA240 fragment was radiolabeled and used as probe. Lanes 1-4: Wildtype hA240 was incubated with no receptor (mock transcription/translation) or with RXRα, PXR or CAR alone. No complex is observed using single receptors. Lanes 5 and 7: Wild-type hA240 was incubated with RXRα and PXR or RXRα and CAR, upon which complex formation between radiolabeled probe and protein is observed. Lanes 6 and 8: Same conditions as in lanes 5 and 7, but instead of wild-type probe, radiolabeled hA240DR4(2) mutant was used. No complex is formed.

[2] = biological target: T1, human 9-cis retinoic acid receptor RXRα; assay: electrophoretic mobility shift, hA174 probe; no complex with single receptors (FIG. 19A)

- binding [1]: binds
- binding [2]: binds
B1: human constitutive androstane receptor (CAR) (receptor, UniProt Q14994-2 1-348, looked up)
chain: MASREDELRNCVVCGDQATGYHFNALTCEGCKGFFRRTVSKSIGPTCPFAGSCEVSKTQRRHCPACRLQKCLDAGMRKDMILSAEALALRRAKQAQRRAQQTPVQLSKEQEELIRTLLGAHTRHMGTMFEQFVQFRPPAHLFIHHQPLPTLAPVLPLVTHFADINTFMVLQVIKFTKDLPVFRSLPIEDQISLLKGAAVEICHIVLNTTFCLQTQNFLCGPLRYTIEDGARVGFQVEFLELLFHFHGTLRKLQLQEPEYVLLAAMALFSPDRPGVTQRDEIDQLQEEMALTLQSYIKGQQRRPRDRFLYAKLLGLLAELRSINEAYGYQIQHIQGLSAMMPLLQEICS
